Reference: PMC6755124
No constants are given. Whether binding was seen depends on the method and setting. In cells and extracts the contact can be indirect. Sequences can lack the tags named with a protein.

Target: T1, C6orf203::FLAG (C-terminal FLAG tagged C6orf203) (human) (UniProt Q9P0P8)
T1 sequence: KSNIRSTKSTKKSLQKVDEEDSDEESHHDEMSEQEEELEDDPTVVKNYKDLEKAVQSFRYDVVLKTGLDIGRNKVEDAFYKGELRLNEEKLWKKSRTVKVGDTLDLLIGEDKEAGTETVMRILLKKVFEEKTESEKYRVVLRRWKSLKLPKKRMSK
Test: co-IP; FLAG immunoprecipitation without crosslinking from mitochondrial lysate of HEK293T expressing C6orf203::FLAG; anti-FLAG M2 agarose; lysis, wash and elution buffers with 5 mM MgCl2; eluted with 3x FLAG peptide; eluate immunoblotted; control HEK293T without FLAG protein

binding: no binding
Substance: bS16m (from UniProt Q9Y3D3 35-137)
